Measurements reported in PubChem BioAssay AID686943 (Drosophila RNAi Screening Center, 2013).

Assay: 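Knockdowns that increase or decrease active ERK after insulin receptor stimulation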 (primary screen)
System: Drosophila S2R+ haemocyte-like cells expressing YFP-tagged ERK (Rolled)
Knock-down reagent: long dsRNA against Drosophila genes
Conditions: insulin stimulation versus unstimulated cells; dose and duration not given
Read-out: 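Antibody staining for doubly phosphorylated ERK divided by ERK-YFP signal, as plate z-scores, in insulin-treated and untreated cells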
Scale: replicate 1, z-score of dpERK with insulin and replicate 2, z-score of dpERK with insulin: higher = more active ERK per ERK-YFP after insulin; replicate 1, z-score of dpERK under basal conditions: higher = more basal active ERK per ERK-YFP; replicate 1, z-score of ERK-YFP with insulin: higher = more YFP-tagged ERK signal
The deposit covers about 23,000 reagents; this is an unselected part of those that have a named target and a result. 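Extra replicates exist only for a retested subset of genes; insulin dose and duration not given; both raised and lowered dpERK matter.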 Reagents against one gene are numbered here. Names joined by + are all predicted targets of the reagent. The record does not give: the amount of reagent, the time to read-out.

gene | reagent | replicate 1, z-score of dpERK with insulin | replicate 2, z-score of dpERK with insulin | replicate 1, z-score of dpERK under basal conditions | replicate 1, z-score of ERK-YFP with insulin
CR43670 + CR43671 + CR43669 | 1 | 0.72 | 0.06 | 0.34 | 0.32
CR43670 + CR43671 + CR43669 | 2 | 0.68 | -0.09 | -0.47 | 0.39
Grl62c | 1 | 0.19 | 0.38 | 0.2 | 0.32
CG31789 | 1 | 0.82 | 0.71 | 1.32 | -1.2
CG13032 | 1 | 0.42 | 0.27 | 0.82 | 0.72
CG12105 | 1 | 0.03 | 0.18 | -0.06 | 0.21
CG12268 | 1 | -0.88 | -0.27 | 0.08 | -0.23
Vajk4 | 1 | 0.6 | 0.07 | -0.11 | -0.44
Vajk4 | 2 | 0.22 | 0.48 | 0.05 | 0.19
TwdlS | 1 | -0.11 | -0.17 | 0.75 | 0.57
velo | 1 | 1.13 | 2.23 | -1.35 | -5.78
velo | 2 | 2.22 | 1.81 | -1.18 | -3.55
CG14182 | 1 | -0.51 | 0.35 | 0.12 | 0.63
CG34039 | 1 | 0.2 | 0.71 | -0.3 | 0.33
CG17068 | 1 | 0.65 | -0.51 | 0.41 | 0.25
PIG-C | 1 | -0.47 | -0.2 | -1.77 | 0.38
ash2 | 1 | 1.3 | -0.26 | -0.07 | 0.12
mura | 1 | -0.04 | 1.18 | 0.82 | -0.2
mura | 2 | -5.36 | -3.36 | -3.42 | -2.86
Lsp2 | 1 | -0.49 | -0.13 | -0.73 | 0.73
Lsp2 | 2 | -0.21 | -0.38 | 0.23 | 0.57
sphinx1 | 1 | 0.48 | 0.79 | 0.38 | 0.13
Tm2 | 1 | -1.52 | 0.14 | -0.92 | 0.32
CG42841 | 1 | -0.9 | -0.39 | -0.44 | 0.53
CG14866 | 1 | 1.08 | -1.8 | 1.04 | -0.18
CG2129 | 1 | -0.4 | 0.61 | -1.55 | 0.29
Mp20 | 1 | 0.02 | 0.35 | 0.13 | 0.38
CG18278 + CG30059 | 1 | 0.9 | 0.4 | -0.28 | 0.25
sqd | 1 | -0.23 | 0.19 | -1.91 | 0.74
sqd | 2 | -0.32 | -0.46 | -0.95 | 1.12
sqd | 3 | -1.63 | 0.7 | 0.53 | -1.54
CG6052 | 1 | -0.09 | -0.42 | 0.16 | 0.17
Corin | 1 | 0.49 | 0.52 | -0.93 | 0.36
l(2)k09913 | 1 | -1.33 | 0.05 | -0.93 | 1.91
CG14357 | 1 | -1.13 | 0.32 | -0.93 | 1.76
mRpS28 | 1 | -0.5 | 0.23 | -0.45 | 1.5
CG10565 | 1 | -2.76 | -2.03 | -0.08 | -1.07
dmrt11E | 1 | 1.13 | 0.84 | 0.87 | -0.25
Myo28B1 | 1 | -0.49 | 0.06 | 0.71 | -1.01

Sorted by “replicate 1, z-score of dpERK under basal conditions” (highest first): some entries from above
gene | reagent | replicate 1, z-score of dpERK with insulin | replicate 2, z-score of dpERK with insulin | replicate 1, z-score of dpERK under basal conditions | replicate 1, z-score of ERK-YFP with insulin
CG17068 | 1 | 0.65 | -0.51 | 0.41 | 0.25
CG14182 | 1 | -0.51 | 0.35 | 0.12 | 0.63
CG34039 | 1 | 0.2 | 0.71 | -0.3 | 0.33
velo | 2 | 2.22 | 1.81 | -1.18 | -3.55
velo | 1 | 1.13 | 2.23 | -1.35 | -5.78
